Assay: [64Cu]Cu2+ radiolabeling (radiochemical incorporation, RCI, by radio-UHPLC and radio-TLC)
Conditions: for Maximum apparent molar activity with quantitative [64Cu]Cu2+ incorporation / Radiochemical incorporation (RCI) of [64Cu]Cu2+: 10 min
Experimental: To assess the ability of NO3S to chelate [^64Cu]Cu^2+ under extremely dilute radiochemical conditions, a radiolabeling investigation was conducted to explore the effects of temperature, pH, and chelator concentration on the radiochemical incorporation (RCI). Parallel experiments were performed as well using NODAGA, one of the current gold standards for [^64Cu]Cu^2+ chelation endowing a NOTA moiety, for comparison purposes. This ligand was also chosen as it contains the same TACN backbone of NO3S. The RCI was determined using both radio-UHPLC and radio-TLC analysis; a representative HPLC radiochromatogram is reported in Figure S25.
[^64Cu]CuCl2 in 0.5 M HCl (molar activity around 40 GBq/nmol) was purchased from Advanced Center Oncology Macerata ACOM (Italy). NO3S and NODAGA stock solutions were prepared in ultrapure water at 1.0 × 10^–3 M and diluted appropriately to give a serial dilution series (1.0 × 10^–4–1.0 × 10^–7 M).
Radiolabeling data were collected through the addition of [^64Cu]CuCl2 diluted in 0.05 M HCl (1 MBq, 10 μL) to a solution containing the ligand (20 μL) diluted in sodium acetate buffer (90 μL, pH = 4.5) or sodium phosphate buffer (90 μL, pH = 7). Different apparent molar activities were tested from 0.1 to 1000 MBq/nmol, corresponding to a final ligand concentration ranging from 1.0 × 10^–4 to 1.0 × 10^–9 M. The reaction mixtures were allowed to react for 10 min at ambient temperature or 95 °C. All radiolabeling reactions were repeated at least in triplicate. Radiochemical incorporation (RCI) was determined via radio-UHPLC using the analytical method previously described.[26] Alternatively, radio-thin layer chromatography (radio-TLC) on silica gel 60 RP-18 F254S plates with sodium citrate (1 M, pH = 4) as the eluent was employed. Under these conditions, free [^64Cu]Cu^2+ migrates with the solvent front (Rf = 1) while [^64Cu]Cu^2+ complexes remain at the baseline (Rf = 0). A Cyclone Plus Storage Phosphor System (PerkinElmer) was used to analyze the radio-TLC plates after their exposure to a super-resolution phosphor screen (type MS, PerkinElmer; Waltham, MA, USA). All of the data were processed with OptiQuant software (version 5.0, PerkinElmer Inc.; Waltham, MA, USA).

CSCCN1CCN(CCSC)CCN(CCSC)CC1 [NO3S]
Maximum apparent molar activity with quantitative [64Cu]Cu2+ incorporation (pH = 4.5, 95 °C): around 5 MBq/nmol | Molar activity of quantitative incorporation relative to DO4S (pH = 4.5, room temperature): more than 2 fold | Maximum apparent molar activity with quantitative [64Cu]Cu2+ incorporation (pH = 4.5, room temperature): 2.5 MBq/nmol | Radiochemical incorporation (RCI) of [64Cu]Cu2+ (pH = 4.5, room temperature, apparent molar activity up to 2.5 MBq/nmol): > 99% | Radiochemical incorporation (RCI) of [64Cu]Cu2+ (pH = 4.5, room temperature, molar activities >100 MBq/nmol): < 5% | Maximum apparent molar activity with quantitative [64Cu]Cu2+ incorporation (pH = 7.0, ambient temperature): ~10 MBq/nmol | Radiochemical incorporation (RCI) of [64Cu]Cu2+ (pH = 7.0, ambient temperature, 50 MBq/nmol): 39% | Radiochemical incorporation (RCI) of [64Cu]Cu2+ (pH = 7.0, ambient temperature, 100 MBq/nmol): 28%
